Results from cells or extracts need not show a direct contact. Tags and fusion partners may be left off the protein sequences shown.
Assays:
[1] = biological target: T1, Drosophila HSF full length (pHSF WT) (Drosophila melanogaster) (UniProt P22813); assay: footprint; conditions: DNase I protection of HSEs, no heat shock needed; fragment from hsp70 -185 to +295 template; protein in a lysate after overexpression; label: 32P 5' end
T1 sequence: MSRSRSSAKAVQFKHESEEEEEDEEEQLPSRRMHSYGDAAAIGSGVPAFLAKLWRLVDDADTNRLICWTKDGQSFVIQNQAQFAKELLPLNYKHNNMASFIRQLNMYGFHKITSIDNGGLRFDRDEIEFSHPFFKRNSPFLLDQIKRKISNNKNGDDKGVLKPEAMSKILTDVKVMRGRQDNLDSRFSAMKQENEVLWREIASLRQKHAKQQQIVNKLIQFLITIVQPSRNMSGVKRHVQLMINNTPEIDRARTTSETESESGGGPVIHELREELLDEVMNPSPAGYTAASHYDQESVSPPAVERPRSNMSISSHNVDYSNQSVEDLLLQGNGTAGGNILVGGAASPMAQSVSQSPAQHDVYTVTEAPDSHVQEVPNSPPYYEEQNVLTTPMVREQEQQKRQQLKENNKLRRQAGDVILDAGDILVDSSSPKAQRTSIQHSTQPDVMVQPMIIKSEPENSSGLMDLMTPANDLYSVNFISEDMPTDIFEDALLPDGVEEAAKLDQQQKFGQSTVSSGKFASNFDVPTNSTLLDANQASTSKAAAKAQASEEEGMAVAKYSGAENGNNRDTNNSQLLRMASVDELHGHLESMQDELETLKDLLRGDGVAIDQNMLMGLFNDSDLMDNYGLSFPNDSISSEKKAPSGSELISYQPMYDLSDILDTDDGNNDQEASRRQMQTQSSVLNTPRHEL

[2] = biological target: T2, human HSF (HuHSF) (Homo sapiens) (UniProt Q00613); assay: footprint; conditions: footprints essentially identical to Drosophila HSF; protein in a lysate after overexpression; label: 32P 5' end
T2 sequence: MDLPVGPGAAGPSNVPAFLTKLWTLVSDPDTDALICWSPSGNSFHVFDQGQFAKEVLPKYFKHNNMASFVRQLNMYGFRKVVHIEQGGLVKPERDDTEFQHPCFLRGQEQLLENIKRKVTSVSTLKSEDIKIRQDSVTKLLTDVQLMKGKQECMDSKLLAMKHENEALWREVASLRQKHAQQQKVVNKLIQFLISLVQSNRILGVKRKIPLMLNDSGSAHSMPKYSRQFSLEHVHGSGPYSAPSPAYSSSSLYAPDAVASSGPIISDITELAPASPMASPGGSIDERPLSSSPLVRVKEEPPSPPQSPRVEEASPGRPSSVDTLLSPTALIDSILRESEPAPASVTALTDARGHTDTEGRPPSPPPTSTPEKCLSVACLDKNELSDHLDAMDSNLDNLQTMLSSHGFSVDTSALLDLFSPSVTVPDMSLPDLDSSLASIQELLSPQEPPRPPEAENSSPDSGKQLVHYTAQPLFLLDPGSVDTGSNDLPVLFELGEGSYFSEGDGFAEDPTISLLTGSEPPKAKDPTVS

“AAACGGCACACTGTTCTCGTTGCTTCGAGAGAGCGCGCCTCGAATGTTCGCGAAAAGAGCGCCGGAGTATAAATAGAGGCGCTTCGTCGACGGAGCGTCAATTCAATTCA (double strand) [hsp70 promoter (-100 to +10 printed)]”: binds [1]; binds [2].
